Results on one molecule are retold here after patent US20160304573A1, “FIBROMODULIN PEPTIDE” (The Regents of the University of California, priority 2010, published 2016).

These are yes or no findings as the source states them, for the method shown. Some results given as binding are weak or reduced against the parent protein; the word gives no strength.

The assay deals with T1, TGF-β3 (Homo sapiens (Human)) (UniProt P10600).
T1 sequence: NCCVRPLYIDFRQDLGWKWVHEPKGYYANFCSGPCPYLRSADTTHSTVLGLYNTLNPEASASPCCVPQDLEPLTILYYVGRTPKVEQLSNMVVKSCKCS
The assay is described as follows: biotinylated protein on avidin resin, unbound TGF-β read by Mv1Lu growth inhibition (MTT).

B1: Recombinant human FMOD (fibromodulin, whole protein) obtained from CHO-K1 (protein, not shown: small tags and cut ends)
chain: QYEDDPHWWFHYLRSQQSTYYDPYDPYPYETYEPYPYGVDEGPAYTYGSPSPPDPRDCPQECDCPPNFPTAMYCDNRNLKYLPFVPSRMKYVYFQNNQITSIQEGVFDNATGLLWIALHGNQITSDKVGRKVFSKLRHLERLYLDHNNLTRMPGPLPRSLRELHLDHNQISRVPNNALEGLENLTALYLQHNEIQEVGSSMRGLRSLILLDLSYNHLRKVPDGLPSALEQLYMEHNNVYTVPDSYFRGAPKLLYVRLSHNSLTNNGLASNTFNSSSLLELDLSYNQLQKIPPVNTNLENLYLQGNRINEFSISSFCTVVDVVNFSKLQVLRLDGNEIKRSAMPADAPLCLRLASLIEI
Take B1: the binding result is recorded as “binds”.
